Data as given in PubChem BioAssay AID504793 (Drosophila RNAi Screening Center, 2011).
The deposit covers about 23,000 reagents; below is an unselected part of those that have a named target and a result. In the full data, 62 (0.27%) got an active call. 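Calls come from follow-up tests whose scores are not deposited, so confirmed genes may have low counts here; counts are not normalised per plate.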 Raw values vary from plate to plate and are shown uncorrected. Names joined by + are all predicted targets of the reagent. Reagent sequences are not shown.

- Screen: 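Whole-genome screen for parts of the DNA damage checkpoint at G2/M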 (primary screen)
- Cells: Drosophila S2R+ cells
- Reagent: long dsRNA against Drosophila genes, about 0.25 µg dsRNA per well
- Time to read-out: 4 days of dsRNA, then 4 hours of drug before read-out
- Challenge: doxorubicin 0.5 µM for 4 hours to cause double-strand breaks, in cells also given a low, harmless dose of dsRNA against nbs to sensitise the assay
- Detection: 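Per-well count of mitotic cells stained for phospho-histone H3 after doxorubicin exposure, used as mitotic index; counts are raw and not normalised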
- Scale: mitotic cells: higher = more cells in mitosis, weaker G2 arrest
- Call rule: 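Genes are called active only when high mitotic counts were reproduced with independent dsRNAs and mitosis was checked for delay without damage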
- Meaning of the calls: active = confirmed in follow-up tests; inactive = not confirmed

After knock-down of CG3198 [SID104198084] the results were mitotic cells, replicate 1 = 11; inactive.
CG3198 [SID104203297] gave mitotic cells, replicate 1 = 8; inactive.
milt (milton) [SID104180757] scored mitotic cells, replicate 1 = 6; inactive.
With knock-down of milt (milton) [SID104180758] the results were mitotic cells, replicate 1 = 5; inactive.
milt (milton) [SID104182073] showed mitotic cells, replicate 1 = 5; inactive.
Depletion of milt (milton) [SID104207507] resulted in: mitotic cells, replicate 1 = 5; inactive.
Knock-down of TwdlP (TweedleP) [SID104194526] gave: mitotic cells, replicate 1 = 6; inactive.
Depletion of sncRNA:430e + His2A:CG33859 + His2A:CG33817 + 42 more [SID104204394] gave: mitotic cells, replicate 1 = 1; inactive.
With knock-down of Cals (Calsyntenin) [SID104196988] the results were mitotic cells, replicate 1 = 3; inactive.
For Cals (Calsyntenin) [SID104201348], the entry reads mitotic cells, replicate 1 = 6; inactive.
After knock-down of Yp3 (Yolk protein 3) [SID104200094], the record shows mitotic cells, replicate 1 = 9; inactive.
For Yp3 (Yolk protein 3) [SID104204095], the entry reads mitotic cells, replicate 1 = 10; inactive.

2 of these entries, reformatted.
Target gene | PubChem SID | mitotic cells, replicate 1 | mitotic cells, replicate 2 | outcome
milt (milton) | SID104180758 | 5 | – | inactive
milt (milton) | SID104182073 | 5 | – | inactive

The list goes on:
For CG31769 [SID104181153], the entry reads mitotic cells, replicate 1 = 7; inactive.
After knock-down of dbe (dribble) [SID104180603] the results were mitotic cells, replicate 1 = 5; inactive.
LysX (Lysozyme X) [SID104188470] showed mitotic cells, replicate 1 = 9; inactive.
Depletion of ArgRS-m (Arginyl-tRNA synthetase, mitochondrial) [SID104193978] resulted in: mitotic cells, replicate 1 = 1; mitotic cells, replicate 2 = 11; inactive.
Depletion of Nep1 (Neprilysin 1) [SID104198180] resulted in: inactive.
Nep1 (Neprilysin 1) [SID104204752] showed mitotic cells, replicate 1 = 7; inactive.
CG15152 [SID104182245] gave mitotic cells, replicate 1 = 3; inactive.
Nthl1 (Nth-like DNA glycosylase 1) [SID104182975] scored mitotic cells, replicate 1 = 7; inactive.
CG10602 [SID104181867] scored mitotic cells, replicate 1 = 3; inactive.
With knock-down of CG14642 [SID104192020], the record shows mitotic cells, replicate 1 = 5; inactive.
Depletion of topi (matotopetli) [SID104196223] resulted in: mitotic cells, replicate 1 = 13; inactive.
After knock-down of mfr (misfire) [SID104190335] the results were mitotic cells, replicate 1 = 4; inactive.
Amt (Ammonium transporter) [SID104195847] gave mitotic cells, replicate 1 = 4; inactive.
Against Amt (Ammonium transporter) [SID104206514] the deposit lists mitotic cells, replicate 1 = 7; inactive.
For Unc50 (Unc50 RNA binding protein) [SID104196353] the deposit lists mitotic cells, replicate 1 = 6; inactive.
With knock-down of Unc50 (Unc50 RNA binding protein) [SID104207104], the record shows mitotic cells, replicate 1 = 7; inactive.
With knock-down of Cpr11B (Cuticular protein 11B) [SID104199651], the record shows mitotic cells, replicate 1 = 8; inactive.
After knock-down of HisT (Histamine transporter) [SID104184843] the results were mitotic cells, replicate 1 = 11; inactive.
HisT (Histamine transporter) [SID104186197] scored mitotic cells, replicate 1 = 10; inactive.
prim (primacord) [SID104186367] scored mitotic cells, replicate 1 = 4; inactive.
Depletion of CG18662 [SID104182483] gave: mitotic cells, replicate 1 = 12; inactive.
With knock-down of caz (cabeza) [SID104202637], the screen gave mitotic cells, replicate 1 = 6; inactive.
After knock-down of caz (cabeza) [SID104208501] the results were mitotic cells, replicate 1 = 9; inactive.
